# Assay results published in patent publication US20060257938A1, “Method of screening for drugs that block ligand binding to a lipid binding protein” (priority 2005, published 2006).
# Experiment: Baseline fluorescence ratio Ro of probe in absence of analyte
# Conditions: Table 3; baseline ratio, no analyte
row,Molecule,Ro
1,"W82F, L72A: FABP probe clone, substitutions W82F, L72A vs SEQ ID NO: 2 (protein, listed as Rattus norvegicus, PEPTIDE (1)...(131) wild-type rat intestinal fatty acid binding protein) AFDGTWKVDRNENYEKFMEKMGINVVKRKLGAHDNLKLTITQEGNKFTVKESSNFRNIDVVFELGVDFAYSAADGTELTGTFTMEGNKLVGKFKRVDNGKELIAVREISGNELIQTYTYEGVEAKRIFKKE",0.27
2,"R106W, L72A: FABP probe clone, substitutions R106W, L72A vs SEQ ID NO: 2 (protein, listed as Rattus norvegicus, PEPTIDE (1)...(131) wild-type rat intestinal fatty acid binding protein) AFDGTWKVDRNENYEKFMEKMGINVVKRKLGAHDNLKLTITQEGNKFTVKESSNFRNIDVVFELGVDFAYSAADGTELTGTWTMEGNKLVGKFKRVDNGKELIAVWEISGNELIQTYTYEGVEAKRIFKKE",0.24
3,"L78F, L72A: FABP probe clone, substitutions L78F, L72A vs SEQ ID NO: 2 (protein, listed as Rattus norvegicus, PEPTIDE (1)...(131) wild-type rat intestinal fatty acid binding protein) AFDGTWKVDRNENYEKFMEKMGINVVKRKLGAHDNLKLTITQEGNKFTVKESSNFRNIDVVFELGVDFAYSAADGTEFTGTWTMEGNKLVGKFKRVDNGKELIAVREISGNELIQTYTYEGVEAKRIFKKE",0.35
4,"L72M: FABP probe clone, substitution L72M vs SEQ ID NO: 2 (protein, listed as Rattus norvegicus, PEPTIDE (1)...(131) wild-type rat intestinal fatty acid binding protein) AFDGTWKVDRNENYEKFMEKMGINVVKRKLGAHDNLKLTITQEGNKFTVKESSNFRNIDVVFELGVDFAYSMADGTELTGTWTMEGNKLVGKFKRVDNGKELIAVREISGNELIQTYTYEGVEAKRIFKKE",0.38
5,"Y117A, L72A: FABP probe clone, substitutions Y117A, L72A vs SEQ ID NO: 2 (protein, listed as Rattus norvegicus, PEPTIDE (1)...(131) wild-type rat intestinal fatty acid binding protein) AFDGTWKVDRNENYEKFMEKMGINVVKRKLGAHDNLKLTITQEGNKFTVKESSNFRNIDVVFELGVDFAYSAADGTELTGTWTMEGNKLVGKFKRVDNGKELIAVREISGNELIQTATYEGVEAKRIFKKE",0.28
6,"A73I, L72A: FABP probe clone, substitutions A73I, L72A vs SEQ ID NO: 2 (protein, listed as Rattus norvegicus, PEPTIDE (1)...(131) wild-type rat intestinal fatty acid binding protein) AFDGTWKVDRNENYEKFMEKMGINVVKRKLGAHDNLKLTITQEGNKFTVKESSNFRNIDVVFELGVDFAYSAIDGTELTGTWTMEGNKLVGKFKRVDNGKELIAVREISGNELIQTYTYEGVEAKRIFKKE",0.27
7,"Y117S, L72A: FABP probe clone, substitutions Y117S, L72A vs SEQ ID NO: 2 (protein, listed as Rattus norvegicus, PEPTIDE (1)...(131) wild-type rat intestinal fatty acid binding protein) AFDGTWKVDRNENYEKFMEKMGINVVKRKLGAHDNLKLTITQEGNKFTVKESSNFRNIDVVFELGVDFAYSAADGTELTGTWTMEGNKLVGKFKRVDNGKELIAVREISGNELIQTSTYEGVEAKRIFKKE",0.36
8,"A73F, L72A: FABP probe clone, substitutions A73F, L72A vs SEQ ID NO: 2 (protein, listed as Rattus norvegicus, PEPTIDE (1)...(131) wild-type rat intestinal fatty acid binding protein) AFDGTWKVDRNENYEKFMEKMGINVVKRKLGAHDNLKLTITQEGNKFTVKESSNFRNIDVVFELGVDFAYSAFDGTELTGTWTMEGNKLVGKFKRVDNGKELIAVREISGNELIQTYTYEGVEAKRIFKKE",0.33
9,"L72G: FABP probe clone, substitution L72G vs SEQ ID NO: 2 (protein, listed as Rattus norvegicus, PEPTIDE (1)...(131) wild-type rat intestinal fatty acid binding protein) AFDGTWKVDRNENYEKFMEKMGINVVKRKLGAHDNLKLTITQEGNKFTVKESSNFRNIDVVFELGVDFAYSGADGTELTGTWTMEGNKLVGKFKRVDNGKELIAVREISGNELIQTYTYEGVEAKRIFKKE",0.28
10,"D74F, L72A: FABP probe clone, substitutions D74F, L72A vs SEQ ID NO: 2 (protein, listed as Rattus norvegicus, PEPTIDE (1)...(131) wild-type rat intestinal fatty acid binding protein) AFDGTWKVDRNENYEKFMEKMGINVVKRKLGAHDNLKLTITQEGNKFTVKESSNFRNIDVVFELGVDFAYSAAFGTELTGTWTMEGNKLVGKFKRVDNGKELIAVREISGNELIQTYTYEGVEAKRIFKKE",0.25
11,"L72A: FABP probe clone, substitution L72A vs SEQ ID NO: 2 (protein of ADIFAB2) (protein, listed as Rattus norvegicus, PEPTIDE (1)...(131) wild-type rat intestinal fatty acid binding protein) AFDGTWKVDRNENYEKFMEKMGINVVKRKLGAHDNLKLTITQEGNKFTVKESSNFRNIDVVFELGVDFAYSAADGTELTGTWTMEGNKLVGKFKRVDNGKELIAVREISGNELIQTYTYEGVEAKRIFKKE",0.17

# Same assay, conditions: Table 4; baseline ratio, no analyte
row,Molecule,Ro
1,"L1P12E11: FABP probe, substitutions Y14L L72W vs SEQ ID NO: 2 (protein, listed as Rattus norvegicus, PEPTIDE (1)...(131) wild-type rat intestinal fatty acid binding protein) AFDGTWKVDRNENLEKFMEKMGINVVKRKLGAHDNLKLTITQEGNKFTVKESSNFRNIDVVFELGVDFAYSWADGTELTGTWTMEGNKLVGKFKRVDNGKELIAVREISGNELIQTYTYEGVEAKRIFKKE",0.59

# Same assay, conditions: baseline fluorescence ratio of probe
row,Molecule,Ro
1,"73I 72A (protein, listed as Rattus norvegicus, PEPTIDE (1)...(131) wild-type rat intestinal fatty acid binding protein) AFDGTWKVDRNENYEKFMEKMGINVVKRKLGAHDNLKLTITQEGNKFTVKESSNFRNIDVVFELGVDFAYSAIDGTELTGTWTMEGNKLVGKFKRVDNGKELIAVREISGNELIQTYTYEGVEAKRIFKKE",0.276
2,"21W 78A 102V 72A (protein, listed as Rattus norvegicus, PEPTIDE (1)...(131) wild-type rat intestinal fatty acid binding protein) AFDGTWKVDRNENYEKFMEKWGINVVKRKLGAHDNLKLTITQEGNKFTVKESSNFRNIDVVFELGVDFAYSAADGTEATGTWTMEGNKLVGKFKRVDNGKEVIAVREISGNELIQTYTYEGVEAKRIFKKE",0.388
